# The supplement of paper PMC8728848
# Some of the results follow.
# What was measured:
# Experiment in all cases: glycan array binding signal (z-score within array); higher = stronger binding
# Details in all cases: glycan notation: IUPAC condensed, linker removed
# [1] = biological target: Gal(b1-3)GlcNAc(b1-2)Man(a1-3)[GlcNAc(b1-4)][Gal(b1-3)GlcNAc(b1-2)Man(a1-6)]Man(b1-4)GlcNAc(b1-4)GlcNAc
# Summary of the method: (§1)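 The Consortium for Functional Glycomics database supplied 3228 glycan arrays, of which those lacking an available protein sequence were dropped. The binding signal, a within-array Z-score, was averaged across arrays of the same protein sequence and across linkers. Negative scores can be read as non-binding.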
# [2] = biological target: Gal(b1-3)GlcNAc(b1-2)[Gal(b1-3)GlcNAc(b1-6)]Man(a1-6)[Gal(b1-3)GlcNAc(b1-2)Man(a1-3)]Man(b1-4)GlcNAc(b1-4)GlcNAc
# Summary of the method: as §1
# [3] = biological target: Gal(b1-3)GlcNAc(b1-3)Gal(b1-3)GlcNAc
# Summary of the method: as §1
# [4] = biological target: Gal(b1-3)GlcNAc(b1-3)Gal(b1-4)Glc
# Summary of the method: as §1
# [5] = biological target: Gal(b1-3)GlcNAc(b1-3)Gal(b1-4)GlcNAc
# Summary of the method: as §1
# [6] = biological target: Gal(b1-3)GlcNAc(b1-3)Gal(b1-4)GlcNAc(b1-2)Man(a1-3)[Gal(b1-3)GlcNAc(b1-3)Gal(b1-4)GlcNAc(b1-2)Man(a1-6)]Man(b1-4)GlcNAc(b1-4)GlcNAc
# Summary of the method: as §1
# [7] = biological target: Gal(b1-3)GlcNAc(b1-3)Gal(b1-4)GlcNAc(b1-2)[Gal(b1-3)GlcNAc(b1-3)Gal(b1-4)GlcNAc(b1-6)]Man(a1-6)[Gal(b1-3)GlcNAc(b1-3)Gal(b1-4)GlcNAc(b1-2)Man(a1-3)]Man(b1-4)GlcNAc(b1-4)[Fuc(a1-6)]GlcNAc
# Summary of the method: as §1
# [8] = biological target: Gal(b1-3)GlcNAc(b1-3)Gal(b1-4)GlcNAc(b1-3)Gal(b1-4)GlcNAc(b1-2)[Gal(b1-3)GlcNAc(b1-3)Gal(b1-4)GlcNAc(b1-3)Gal(b1-4)GlcNAc(b1-6)]Man(a1-6)[Gal(b1-3)GlcNAc(b1-3)Gal(b1-4)GlcNAc(b1-3)Gal(b1-4)GlcNAc(b1-2)Man(a1-3)]Man(b1-4)GlcNAc(b1-4)[Fuc(a1-6)]GlcNAc
# Summary of the method: as §1
# [9] = biological target: Gal(b1-3)GlcNAc(b1-3)Gal(b1-4)GlcNAc(b1-6)[Gal(b1-3)GlcNAc(b1-3)]Gal(b1-4)Glc
# Summary of the method: as §1
# [10] = biological target: Gal(b1-3)GlcNAc(b1-3)Gal(b1-4)[Fuc(a1-3)]GlcNAc(b1-6)[Gal(b1-3)GlcNAc(b1-3)]Gal(b1-4)Glc
# Summary of the method: as §1
# [11] = biological target: Gal(b1-3)GlcNAc(b1-3)GalNAc
# Summary of the method: as §1
# [12] = biological target: Gal(b1-3)GlcNAc(b1-6)Gal(b1-4)GlcNAc
# Summary of the method: as §1
# [13] = biological target: Gal(b1-3)GlcNAc(b1-6)GalNAc
# Summary of the method: as §1
# [14] = biological target: Gal(b1-3)GlcNAc(b1-6)[Gal(b1-3)]GalNAc
# Summary of the method: as §1
# [15] = biological target: Gal(b1-3)GlcNAc6S
# Summary of the method: as §1
# [16] = biological target: Gal(b1-3)[Fuc(a1-4)]GlcNAc
# Summary of the method: as §1
# [17] = biological target: Gal(b1-3)[Fuc(a1-4)]GlcNAc(b1-2)Man
# Summary of the method: as §1
# [18] = biological target: Gal(b1-3)[Fuc(a1-4)]GlcNAc(b1-2)Man(a1-3)[Gal(b1-3)[Fuc(a1-4)]GlcNAc(b1-2)Man(a1-6)]Man(b1-4)GlcNAc(b1-4)GlcNAc
# Summary of the method: as §1
# [19] = biological target: Gal(b1-3)[Fuc(a1-4)]GlcNAc(b1-2)Man(a1-3)[Gal(b1-3)[Fuc(a1-4)]GlcNAc(b1-2)Man(a1-6)]Man(b1-4)GlcNAc(b1-4)[Fuc(a1-6)]GlcNAc
# Summary of the method: as §1
# [20] = biological target: Gal(b1-3)[Fuc(a1-4)]GlcNAc(b1-3)Gal(b1-3)[Fuc(a1-4)]GlcNAc
# Summary of the method: as §1
# [21] = biological target: Gal(b1-3)[Fuc(a1-4)]GlcNAc(b1-3)Gal(b1-4)GlcNAc
# Summary of the method: as §1
# [22] = biological target: Gal(b1-3)[Fuc(a1-4)]GlcNAc(b1-3)Gal(b1-4)[Fuc(a1-3)]GlcNAc
# Summary of the method: as §1
# [23] = biological target: Gal(b1-3)[Fuc(a1-4)]GlcNAc(b1-6)GalNAc
# Summary of the method: as §1
# [24] = biological target: Gal(b1-3)[GlcNAc(b1-6)]GalNAc
# Summary of the method: as §1
# [25] = biological target: Gal(b1-3)[Neu5Ac(a2-6)]GalNAc
# Summary of the method: as §1
# [26] = biological target: Gal(b1-3)[Neu5Ac(a2-6)]GlcNAc(b1-4)Gal(b1-4)Glc
# Summary of the method: as §1
# [27] = biological target: Gal(b1-3)[Neu5Ac(a2-6)]GlcNAc(b1-6)Gal(b1-4)Glc
# Summary of the method: as §1
# [28] = biological target: Gal(b1-3)[Neu5Ac(b2-6)]GalNAc
# Summary of the method: as §1
# [29] = biological target: Gal(b1-4)Gal
# Summary of the method: as §1
# [30] = biological target: Gal(b1-4)GalNAc(a1-3)[Fuc(a1-2)]Gal(b1-4)GlcNAc
# Summary of the method: as §1
# [31] = biological target: Gal(b1-4)GalNAc(b1-3)[Fuc(a1-2)]Gal(b1-4)GlcNAc
# Summary of the method: as §1
# [32] = biological target: Gal(b1-4)Glc
# Summary of the method: as §1
# [33] = biological target: Gal(b1-4)Glc6S
# Summary of the method: as §1
# [34] = biological target: Gal(b1-4)GlcNAc
# Summary of the method: as §1
# [35] = biological target: Gal(b1-4)GlcNAc(a1-6)Gal(b1-4)GlcNAc
# Summary of the method: as §1
# [36] = biological target: Gal(b1-4)GlcNAc(b1-2)Man
# Summary of the method: as §1
# [37] = biological target: Gal(b1-4)GlcNAc(b1-2)Man(a1-3)Man(b1-4)GlcNAc(b1-4)GlcNAc
# Summary of the method: as §1
# [38] = biological target: Gal(b1-4)GlcNAc(b1-2)Man(a1-3)[Gal(b1-4)GlcNAc(b1-2)Man(a1-6)]Man(b1-4)GlcNAc(b1-4)GlcNAc
# Summary of the method: as §1
binder,measurement,setting,value
"Gal 12 (Homo sapiens), Q96DT0 (protein) MSQPSGGRAPGTRIYSWSCPTVMSPGEKLDPIPDSFILQPPVFHPVVPYVTTIFGGLHAGKMVMLQGVVPLDAHRFQVDFQCGCSLCPRPDIAFHFNPRFHTTKPHVICNTLHGGRWQREARWPHLALRRGSSFLILFLFGNEEVKVSVNGQHFLHFRYRLPLSHVDTLGIFGDILVEAVGFLNINPFVEGSREYPAGHPFLLMSPRLEVPCSHALPQGLSPGQVIIVRGLVLQEPKHFTVSLRDQAAHAPVTLRASFADRTLAWISRWGQKKLISAPFLFYPQRFFEVLLLFQEGGLKLALNGQGLGATSMNQQALEQLRELRISGSVQLYCVHS",glycan array binding signal (z-score),[1],-1.06
same,glycan array binding signal (z-score),[2],0.266
same,glycan array binding signal (z-score),[3],-0.421
same,glycan array binding signal (z-score),[4],-0.471
same,glycan array binding signal (z-score),[5],0.058
same,glycan array binding signal (z-score),[6],-0.574
same,glycan array binding signal (z-score),[7],-0.541
same,glycan array binding signal (z-score),[8],-0.532
same,glycan array binding signal (z-score),[9],-0.661
same,glycan array binding signal (z-score),[10],0.206
same,glycan array binding signal (z-score),[11],-0.004
same,glycan array binding signal (z-score),[12],0.021
same,glycan array binding signal (z-score),[13],-0.771
same,glycan array binding signal (z-score),[14],-0.472
same,glycan array binding signal (z-score),[15],-1.73
same,glycan array binding signal (z-score),[16],0.051
same,glycan array binding signal (z-score),[17],-0.47
same,glycan array binding signal (z-score),[18],-0.186
same,glycan array binding signal (z-score),[19],-0.591
same,glycan array binding signal (z-score),[20],-0.224
same,glycan array binding signal (z-score),[21],1.19
same,glycan array binding signal (z-score),[22],-0.423
same,glycan array binding signal (z-score),[23],-1.1
same,glycan array binding signal (z-score),[24],-0.067
same,glycan array binding signal (z-score),[25],-0.049
same,glycan array binding signal (z-score),[26],1.14
same,glycan array binding signal (z-score),[27],0.922
same,glycan array binding signal (z-score),[28],-0.015
same,glycan array binding signal (z-score),[29],0.011
same,glycan array binding signal (z-score),[30],-0.722
same,glycan array binding signal (z-score),[31],1
same,glycan array binding signal (z-score),[32],-0.083
same,glycan array binding signal (z-score),[33],-0.209
same,glycan array binding signal (z-score),[34],-0.477
same,glycan array binding signal (z-score),[35],-0.194
same,glycan array binding signal (z-score),[36],-0.021
same,glycan array binding signal (z-score),[37],0.045
same,glycan array binding signal (z-score),[38],0.053

# Part of the list above, reformatted:
binder	measurement	setting	value
Gal 12 (Homo sapiens), Q96DT0 (protein) MSQPSGGRAPGTRIYSWSCPTVMSPGEKLDPIPDSFILQPPVFHPVVPYVTTIFGGLHAGKMVMLQGVVPLDAHRFQVDFQCGCSLCPRPDIAFHFNPRFHTTKPHVICNTLHGGRWQREARWPHLALRRGSSFLILFLFGNEEVKVSVNGQHFLHFRYRLPLSHVDTLGIFGDILVEAVGFLNINPFVEGSREYPAGHPFLLMSPRLEVPCSHALPQGLSPGQVIIVRGLVLQEPKHFTVSLRDQAAHAPVTLRASFADRTLAWISRWGQKKLISAPFLFYPQRFFEVLLLFQEGGLKLALNGQGLGATSMNQQALEQLRELRISGSVQLYCVHS	glycan array binding signal (z-score)	[17]	-0.47
same	glycan array binding signal (z-score)	[18]	-0.186
same	glycan array binding signal (z-score)	[19]	-0.591
